# These are yes or no findings as the source states them, for the method shown. In cells and extracts the contact can be indirect.
# B1: rhodopsin 1 (Rh1) apoprotein, immature form (receptor, UniProt P06002 1-373)
# chain: MESFAVAAAQLGPHFAPLSNGSVVDKVTPDMAHLISPYWNQFPAMDPIWAKILTAYMIMIGMISWCGNGVVIYIFATTKSLRTPANLLVINLAISDFGIMITNTPMMGINLYFETWVLGPMMCDIYAGLGSAFGCSSIWSMCMISLDRYQVIVKGMAGRPMTIPLALGKIAYIWFMSSIWCLAPAFGWSRYVPEGNLTSCGIDYLERDWNPRSYLIFYSIFVYYIPLFLICYSYWFIIAAVSAHEKAMREQAKKMNVKSLRSSEDAEKSAEGKLAKVALVTITLWFMAWTPYLVINCMGLFKFEGLTPLNTIWGACFAKSAACYNPIVYGISHPKYRLALKEKCPCCVFGKVDDGKSSDAQSQATASEAESKA
# modifications: N-glycosylated immature form
# Molecular target: GFP-tagged EMC1 protein (EMC1::GFP) (Drosophila)
# Test: co-IP; CHAPS extract of adult head membrane fraction (50 mM Tris-Cl, 500 mM NaCl, pH 7.5) bound to anti-GFP magnetic beads for 18 hr, rinsed with 0.1% CHAPS, eluates immunoblotted for GFP, Rh1, dPob and Cnx; Rh1-Gal4 driver with flies reared in vitamin A-deficient medium, or hs-Gal4 driver with flies in normal medium; sec61::GFP as negative control
binder,measurement,value
B1,binding,no binding
